Data: PubChem BioAssay AID328 (DTP/NCI, 2004)
The list is a part of this screen's results and no random one: it is rich in T/C values a quarter to a half above the control, in often repeated tests (any T/C) and in doses without a T/C. Other doses and runs of a compound stand elsewhere. T/C is the treated group as % of the vehicle group. Some entries give survivors of the animals treated and no T/C: the source holds a T/C of zero for them, seemingly a mark for toxic or unscored doses. Some survivor counts are full or nearly so, which does not show that the dose was tolerated: survival well below the control is almost never listed, so the zero probably covers shortened survival too. Survivors were counted at the toxicity check, usually on the fifth day, unless a day is given; later deaths do not show. Schedules are NCI's codes, taken here to give the interval after Q, in days (D) or hours (H), and the number of doses after X. Some entries hold several experiments; the results are listed from low to high. For survival time, the PubChem record calls one and a half times the control and up active, and a quarter to a half above the control has no call in these data; cut-offs in other NCI protocols can differ. Some T/C values are followed by the survivors on the day toxicity was checked, most often the fifth; where none is given, no animal had died by that day.

Test system: BDF1 mice, P388 leukemia ip, median survival T/C
Assay: NCI In Vivo Anticancer Drug Screen. Data for tumor model P388 Leukemia (intraperitoneal) in B6D2F1 (BDF1) mice
Conditions: T/C endpoint: median survival time, higher T/C = longer survival
How it was run: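 Survival ratio, drug arm over vehicle arm, in mice with a transplanted tumour.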

[1] = dose: 25.0 mg/kg/injection, schedule: Q01DX009 (ip), vehicle: saline
[2] = dose: 50.0 mg/kg/injection, schedule: Q04DX003 (ip), vehicle: saline
[3] = dose: 200.0 mg/kg/injection, schedule: Q04DX003 (ip), vehicle: saline
[4] = dose: 100.0 mg/kg/injection, schedule: Q01DX001 (ip), vehicle: saline with Tween-80
[5] = dose: 400.0 mg/kg/injection, schedule: Q04DX003 (ip), vehicle: saline
[6] = dose: 200.0 mg/kg/injection, schedule: Q01DX009 (ip), vehicle: water
[7] = dose: 100.0 mg/kg/injection, schedule: Q04DX003 (ip), vehicle: water

Q: Which T/C (dose: 12.37 mg/kg/injection, schedule: Q01DX009 (ip), vehicle: saline) does the source give for `CN(C)CCCN1c2ccccc2Sc2ccc(C(F)(F)F)cc21` here?
A: Its T/C is 136 % of control.

Q: What about the T/C (dose: 12.5 mg/kg/injection, schedule: Q01DX009 (ip), vehicle: saline) of the same molecule?
A: Its T/C is 130 and 145 % of control.

Q: And the T/C (dose: 16.5 mg/kg/injection, schedule: Q04DX003 (ip), vehicle: saline)?
A: The T/C was 127 % of control.

Q: And the T/C (dose: 18.75 mg/kg/injection, schedule: Q01DX009 (ip), vehicle: saline)?
A: Its T/C is 127 and 145 % of control.

Q: What about the T/C [1] of the same molecule?
A: The T/C was 145 % of control.

Q: And the survivor count [1]?
A: Its survivor count is 6 of 7.

Q: And the T/C (dose: 25.0 mg/kg/injection, schedule: Q04DX003 (ip), vehicle: saline)?
A: Its T/C is 129, 130, 144 % of control.

Q: And the T/C (dose: 28.12 mg/kg/injection, schedule: Q01DX009 (ip), vehicle: saline)?
A: Its T/C is 136 % of control [5 of 6 alive].

Q: And the survivor count (dose: 37.5 mg/kg/injection, schedule: Q01DX009 (ip), vehicle: saline)?
A: The survivor count was 4 of 6.

Q: And the survivor count (dose: 50.0 mg/kg/injection, schedule: Q01DX009 (ip), vehicle: saline)?
A: Its survivor count is 2 of 7.

Q: What about the T/C (dose: 50.0 mg/kg/injection, schedule: Q04DX003 (ip), vehicle: saline with Tween-80) of the same molecule?
A: The T/C was 143 % of control.

Q: What about the T/C [2] of the same molecule?
A: The T/C was 127 and 140 % of control.

Q: What about the survivor count [2] of the same molecule?
A: The survivor count was 3 of 6.

Q: What about the survivor count (dose: 100.0 mg/kg/injection, schedule: Q04DX003 (ip), vehicle: saline) of the same molecule?
A: The survivor count was 0 of 6 and 2 of 6.

Q: What about the survivor count [3] of the same molecule?
A: Its survivor count is 0 of 6.

Q: For `CCCn1c2nc(=O)[nH]c(=O)c-2[n+]([O-])c2ccccc21`, which survivor count [4] is on record?
A: Its survivor count is 0 of 6.

Q: And the survivor count (dose: 200.0 mg/kg/injection, schedule: Q01DX001 (ip), vehicle: saline with Tween-80)?
A: The survivor count was 0 of 6.

Q: And the survivor count (dose: 400.0 mg/kg/injection, schedule: Q01DX001 (ip), vehicle: saline with Tween-80)?
A: Its survivor count is 0 of 6.

Q: Which survivor count (dose: 37.5 mg/kg/injection, schedule: Q01DX009 (ip), vehicle: saline with Tween-80) does the source give for `O=C(Nc1ccc(C2=NCCCN2)cc1)Nc1cccc(C(=O)Nc2ccc(C3=NCCCN3)cc2)c1` here?
A: Its survivor count is 5 of 6.

Q: Which survivor count [3] does the source give for `CC1(C)OCC(=NNC(N)=O)CO1` here?
A: The survivor count was 3 of 6.

Q: What about the survivor count [5] of the same molecule?
A: Its survivor count is 0 of 6.

Q: Which results are given for `Cc1c2oc3c(C)c(N)cc(C(=O)NC4C(=O)NC(C(C)C)C(=O)N5CCCC5C(=O)N(C)CC(=O)N(C)C(C(C)C)C(=O)OC4C)c3nc-2c(C(=O)NC2C(=O)NC(C(C)C)C(=O)N3CCCC3C(=O)N(C)CC(=O)N(C)C(C(C)C)C(=O)OC2C)c(N)c1=O` (centres undefined)?
A: survivor count (dose: 112.5 micrograms/kg/injection, schedule: Q01DX009 (ip), vehicle: saline + alcohol): 8 of 8; survivor count (dose: 150.0 micrograms/kg/injection, schedule: Q01DX009 (ip), vehicle: saline + alcohol): 8 of 8; survivor count (dose: 225.0 micrograms/kg/injection, schedule: Q01DX009 (ip), vehicle: saline + alcohol): 8 of 8; survivor count (dose: 300.0 micrograms/kg/injection, schedule: Q01DX009 (ip), vehicle: saline + alcohol): 8 of 8; survivor count (dose: 300.0 micrograms/kg/injection, schedule: Q04DX003 (ip), vehicle: saline + alcohol): 8 of 8; survivor count (dose: 600.0 micrograms/kg/injection, schedule: Q04DX003 (ip), vehicle: saline + alcohol): 7 of 8; survivor count (dose: 900.0 micrograms/kg/injection, schedule: Q04DX003 (ip), vehicle: saline + alcohol): 5 of 8

Q: Which T/C [6] does the source give for `C#CC1(OCC(O)CO)CCCCC1` (centres undefined) here?
A: Its T/C is 138 % of control.

Q: What about the T/C (dose: 300.0 mg/kg/injection, schedule: Q01DX009 (ip), vehicle: water) of the same molecule?
A: The T/C was 128 % of control.

Q: What does the source list for `CCCCCCC#CC(=O)O`?
A: survivor count (dose: 400.0 mg/kg/injection, schedule: Q01DX009 (ip), vehicle: saline with Tween-80): 3 of 6; survivor count (dose: 400.0 mg/kg/injection, schedule: Q04DX003 (sc), vehicle: olive oil, sesame oil, peanut oil): 6 of 6

Q: With `CCn1c2ccc(N)cc2c2c3[nH]c(=O)c4cccn4c3ccc21` as the molecule, how does the survivor count (dose: 400.0 mg/kg/injection, schedule: Q04DX002 (ip), vehicle: saline with Tween-80) read?
A: The survivor count was 1 of 5.

Q: `CCCCCCCCCCCC[n+]1cccc2ccccc21` was tested. Which T/C (dose: 0.15 mg/kg/injection, schedule: Q01DX009 (ip), vehicle: saline) did it give?
A: Its T/C is 145 % of control.

Q: And the survivor count (dose: 1.4 mg/kg/injection, schedule: Q01DX009 (ip), vehicle: saline)?
A: The survivor count was 3 of 6.

Q: Which results are given for `N#Cc1cnc2nc(N)nc(N)c2c1`?
A: survivor count (dose: 400.0 mg/kg/injection, schedule: Q01DX009 (ip), vehicle: saline): 1 of 6; survivor count [5]: 4 of 6

Q: Which results are given for `Cc1nn(CCO)c(C)c1N=[N+]([O-])c1c(C)nn(CCO)c1C`?
A: T/C (dose: 30.0 mg/kg/injection, schedule: Q01DX009 (ip), vehicle: saline with Tween-80): 126 % of control; T/C (dose: 60.0 mg/kg/injection, schedule: Q01DX009 (ip), vehicle: saline with Tween-80): 132 % of control [6 of 7 alive]

Q: Which survivor count (dose: 400.0 mg/kg/injection, schedule: Q04DX003 (ip), vehicle: Klucel (hydroxypropylcellulose) (HPC)) does the source give for `O=C(NC1CCCCC1)OCC#CC#CCOC(=O)NC1CCCCC1` here?
A: Its survivor count is 4 of 6.

Q: How did the survivor count [4] turn out when `N#C/C(=C/c1ccccc1)CBr` was run?
A: The survivor count was 2 of 6.

Q: Which results are given for `COc1cccc2c1C(=O)c1c(O)c3c(c(O)c1C2=O)C[C@@](O)(/C(CO)=N/NC(=O)c1ccc(Cl)c(Cl)c1)C[C@@H]3OC1CC(N)C(O)C(C)O1` (some centres undefined)?
A: T/C (dose: 6.25 mg/kg/injection, schedule: Q01DX009 (ip), vehicle: water): 140 % of control; survivor count (dose: 25.0 mg/kg/injection, schedule: Q01DX009 (ip), vehicle: water): 6 of 6

Q: How did the survivor count (dose: 200.0 mg/kg/injection, schedule: Q01DX009 (ip), vehicle: saline with Tween-80) turn out when `Cc1ccc(C(SCC(N)C(=O)O)(c2ccccc2)c2ccc(C)cc2)cc1` (centres undefined) was run?
A: The survivor count was 6 of 6.

Q: What about the survivor count (dose: 300.0 mg/kg/injection, schedule: Q04DX003 (ip), vehicle: saline with Tween-80) of the same molecule?
A: Its survivor count is 5 of 6.

Q: Which survivor count (dose: 100.0 mg/kg/injection, schedule: Q01DX009 (ip), vehicle: saline) does the source give for `CC(C)[N+](C)(C)CC(O)COc1cccc2ccccc12` (centres undefined) here?
A: The survivor count was 0 of 6.

Q: How did the survivor count (dose: 200.0 mg/kg/injection, schedule: Q01DX009 (ip), vehicle: Klucel (hydroxypropylcellulose) (HPC)) turn out when `COC(=O)C1C(O)C(C)C(O)C(C)C=C(C)C2=C3C(=C(C)C(=O)c4c(O)c(c(C)c(OC(C)=O)c43)NC(=O)C(C)=C/C=C\C(C)C(O)C(C)C1O)OCO2` (centres undefined) was run?
A: The survivor count was 1 of 6.

Q: For `O=c1c(Cl)c2cc3c(cc2c2ccccc12)nc1ccccc1n3-c1ccccc1`, which survivor count (dose: 50.0 mg/kg/injection, schedule: Q01DX001 (ip), vehicle: saline with Tween-80) is on record?
A: Its survivor count is 6 of 6.

Q: Which results are given for `C[n+]1ccc(Nc2ccc(NC(=O)c3ccc([N+](=O)[O-])cc3)cc2)cc1`?
A: T/C (dose: 50.0 mg/kg/injection, schedule: Q04DX003 (ip), vehicle: water, evaluated on day 22): 100 % of control; T/C (dose: 50.0 mg/kg/injection, schedule: Q04DX003 (ip), vehicle: water, evaluated on day 30): 107, 113, 114 % of control; T/C [7]: 109, 112, 113 % of control; survivor count [7]: 3 of 6; survivor count [6]: 0 of 6; T/C (dose: 200.0 mg/kg/injection, schedule: Q04DX003 (ip), vehicle: water, evaluated on day 22): 91 % of control [4 of 6 alive]; T/C (dose: 200.0 mg/kg/injection, schedule: Q04DX003 (ip), vehicle: water, evaluated on day 30): 98 % of control [5 of 6 alive]; survivor count (dose: 200.0 mg/kg/injection, schedule: Q04DX003 (ip), vehicle: water): 3 of 6 and 5 of 6

Q: With `COc1ccc(C2=C[P+](c3ccccc3)(c3ccccc3)C=C(c3ccccc3)O2)cc1` as the molecule, how does the survivor count (dose: 50.0 mg/kg/injection, schedule: Q01DX005 (ip), vehicle: saline with Tween-80) read?
A: The survivor count was 0 of 5.

Q: What about the survivor count (dose: 100.0 mg/kg/injection, schedule: Q01DX005 (ip), vehicle: saline with Tween-80) of the same molecule?
A: Its survivor count is 0 of 5.

Q: And the survivor count (dose: 200.0 mg/kg/injection, schedule: Q01DX005 (ip), vehicle: saline with Tween-80)?
A: The survivor count was 0 of 5.

Q: How did the T/C (dose: 7.5 mg/kg/injection, schedule: Q01DX009 (ip), vehicle: saline) turn out when `N=C(N)c1ccc(OCCCOc2ccc(C(=N)N)cc2Br)c(Br)c1` was run?
A: The T/C was 136 % of control.

Q: And the T/C (dose: 16.5 mg/kg/injection, schedule: Q01DX009 (ip), vehicle: saline sonified)?
A: Its T/C is 127 % of control.

Q: And the T/C (dose: 37.5 mg/kg/injection, schedule: Q01DX009 (ip), vehicle: saline sonified)?
A: Its T/C is 145 % of control.

Q: Which survivor count [1] does the source give for `CCCCCCOc1ccc(OCCCC[N+]2(CC)CCCCC2)cc1` here?
A: Its survivor count is 1 of 6.

Q: With `CNC(=S)N(C)C` as the molecule, how does the T/C (dose: 400.0 mg/kg/injection, schedule: Q01DX001 (ip), vehicle: saline) read?
A: The T/C was 130 % of control.
